# In publication doi:10.1101/2021.09.28.462098:
# By UniProt entry, the sequences of proteins in these tests, tags left out.
# UniProt Q07335: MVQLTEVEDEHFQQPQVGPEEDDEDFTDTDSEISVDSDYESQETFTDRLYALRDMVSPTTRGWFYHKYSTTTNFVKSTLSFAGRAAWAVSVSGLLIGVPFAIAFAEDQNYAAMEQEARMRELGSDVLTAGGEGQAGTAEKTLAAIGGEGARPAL
# UniProt Q7SG90: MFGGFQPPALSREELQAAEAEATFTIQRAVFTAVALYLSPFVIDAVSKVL
# UniProt P24391: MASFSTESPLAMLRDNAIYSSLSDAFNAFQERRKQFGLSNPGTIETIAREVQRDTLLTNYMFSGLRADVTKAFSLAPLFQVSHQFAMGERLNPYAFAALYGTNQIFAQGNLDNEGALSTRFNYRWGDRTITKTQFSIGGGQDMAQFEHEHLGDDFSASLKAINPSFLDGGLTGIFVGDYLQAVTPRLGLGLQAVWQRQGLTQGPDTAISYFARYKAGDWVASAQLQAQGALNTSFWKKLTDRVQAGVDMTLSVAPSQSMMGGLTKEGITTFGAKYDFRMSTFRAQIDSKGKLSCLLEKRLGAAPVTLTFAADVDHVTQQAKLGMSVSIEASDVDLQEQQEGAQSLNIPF
# No constants are given. Whether binding was seen depends on the method and setting. Some binding calls cover weakened binding; strength is not graded here.
# Biological target: Tom22 with a hexahistidine tag at the C-terminus (Neurospora crassa) (UniProt Q07335)
# Test: co-purification
row,binding,Substance
1,binds,Tom5 (from UniProt Q7SG90 1-50)
2,binds,Tom40 (from UniProt P24391 1-349)
